PubChem BioAssay AID493246 – Drosophila RNAi Screening Center, 2011

Test: 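Identify essential fly genes by loss of cell viability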 (primary screen)
System: Drosophila Kc and S2R+ cells
Knock-down reagent: long dsRNA against Drosophila genes
Read-out: 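Cell number per well after knock-down, printed as raw plate values; calls were based on per-plate z-scores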
Scale: Kc cell number and S2R+ cell number: higher = more cells remaining
Call rule: 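Counted as a hit if cell number falls by a z-score of at least 3 within its plate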
The screen tested about 21,000 reagents; below is a random part of those that have a named target and a result. In the full data, 429 (2%) were called active. 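Values are raw and not normalised between plates; calls rest on per-plate z-scores that were not deposited.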 Reagents against one gene are numbered here. No sequences are given here. Not stated in the record: the amount of reagent, the time to read-out.

Target gene	reagent	Kc cell number, rep 1	Kc cell number, rep 2	S2R+ cell number, rep 1	S2R+ cell number, rep 2	activity call
CG9760 (GeneID 39388)	1	1.24e6	1.30e6	1.24e6	1.29e6	inactive
lncRNA:sphinx (GeneID 4379815)	1	1.35e6	1.36e6	8.68e5	1.00e6	inactive
Crk (GeneID 43775)	1	5.53e5		8.34e5		inactive
CG31371 (GeneID 43626)	1	1.46e6	1.47e6	9.99e5	1.06e6	inactive
RabGGTa (GeneID 40617)	1	1.58e6	1.63e6	1.22e6	1.33e6	inactive
Gpat4 (GeneID 37852)	1	1.38e6	1.48e6	1.15e6	1.19e6	inactive
CG34269 (GeneID 5740713)	1	1.47e6	1.47e6	9.92e5	1.16e6	inactive
CG31326 (GeneID 41728)	1	1.50e6	1.49e6	1.06e6	1.23e6	inactive
Patj (GeneID 44100)	1	1.32e6	1.35e6	1.20e6	1.14e6	inactive
CG13033 (GeneID 39839)	1	1.37e6	1.44e6	1.26e6	1.35e6	inactive
rau (GeneID 33814)	1	1.31e6	1.32e6	5.59e5	6.55e5	inactive
CG13562 (GeneID 37797)	1	1.87e6	1.92e6	1.33e6	1.38e6	inactive
CG4892 (GeneID 34949)	1	1.72e6	1.95e6	1.30e6	1.55e6	inactive
mRpL15 (GeneID 40261)	1	1.46e6	1.52e6	1.14e6	1.18e6	inactive
Cpr100A (GeneID 43657)	1	1.41e6	1.49e6	1.04e6	1.15e6	inactive
CG31787 (GeneID 318941)	1	1.53e6	1.57e6	9.74e5	1.25e6	inactive
CG17778 (GeneID 30996)	1	1.69e6	1.60e6	9.78e5	1.13e6	inactive
Abd-B (GeneID 47763)	1	1.43e6	1.43e6	1.05e6	1.19e6	inactive
Abd-B (GeneID 47763)	2	1.29e6	1.27e6	1.07e6	1.20e6	inactive
CG5478 (GeneID 41936)	1	1.30e6	1.39e6	1.21e6	1.38e6	inactive
CG8003 (GeneID 39210)	1	1.28e6	1.37e6	1.29e6	1.07e6	inactive
Dgat2 (GeneID 35719)	1	1.46e6	1.53e6	9.76e5	1.02e6	inactive
hbt (GeneID 34738)	1	1.57e6	1.65e6	1.22e6	1.39e6	inactive
CG3216 (GeneID 37376)	1	1.65e6	1.77e6	1.36e6	4.43e5	inactive
CG32483 (GeneID 318050)	1	1.53e6	1.52e6	1.02e6	1.17e6	inactive
DIP-iota (GeneID 33925)	1	1.49e6	1.40e6	1.16e6	1.25e6	inactive
ich (GeneID 41069)	1	1.47e6	1.59e6	1.09e6	1.33e6	inactive
ich (GeneID 41069)	2	1.55e6	1.76e6	1.30e6	1.40e6	inactive
Nek2 (GeneID 31696)	1	6.54e5		1.01e6		inactive

Ordered by “Kc cell number, rep 1” (high to low): some entries from above.
Target gene	reagent	Kc cell number, rep 1	Kc cell number, rep 2	S2R+ cell number, rep 1	S2R+ cell number, rep 2	activity call
RabGGTa (GeneID 40617)	1	1.58e6	1.63e6	1.22e6	1.33e6	inactive
CG31326 (GeneID 41728)	1	1.50e6	1.49e6	1.06e6	1.23e6	inactive
CG34269 (GeneID 5740713)	1	1.47e6	1.47e6	9.92e5	1.16e6	inactive
CG31371 (GeneID 43626)	1	1.46e6	1.47e6	9.99e5	1.06e6	inactive
Gpat4 (GeneID 37852)	1	1.38e6	1.48e6	1.15e6	1.19e6	inactive
Patj (GeneID 44100)	1	1.32e6	1.35e6	1.20e6	1.14e6	inactive

Additional reagents:
Target gene	reagent	Kc cell number, rep 1	Kc cell number, rep 2	S2R+ cell number, rep 1	S2R+ cell number, rep 2	activity call
Jon65Ai (GeneID 38685)	1	1.40e6	1.45e6	1.15e6	1.18e6	inactive
CG8757 (GeneID 39528)	1	1.54e6	1.50e6	1.47e6	1.58e6	inactive
Chchd2 (GeneID 32701)	1	1.64e6	1.63e6	1.12e6	1.29e6	inactive
Smyd4-4 (GeneID 36299)	1	1.24e6	1.34e6	1.06e6	1.10e6	inactive
Men-b (GeneID 43936)	1	1.53e6	1.56e6	1.04e6	1.11e6	inactive
Hrs (GeneID 33458)	1	1.27e6	1.31e6	7.24e5	7.05e5	inactive
ear (GeneID 44451)	1	1.56e6	1.65e6	1.28e6	1.34e6	inactive
CG15024 (GeneID 50172)	1	1.60e6	1.46e6	1.07e6	1.19e6	inactive
stw (GeneID 35494)	1	1.47e6	1.55e6	1.32e6	1.27e6	inactive
stw (GeneID 35494)	2	1.53e6	1.53e6	1.35e6	1.28e6	inactive
nclb (GeneID 36150)	1	1.67e6	1.65e6	1.43e6	1.67e6	inactive
Aldh (GeneID 34256)	1	1.54e6	1.60e6	1.19e6	1.32e6	inactive
Smug (GeneID 42078)	1	1.24e6	1.32e6	1.18e6	1.31e6	inactive
CG34135 (GeneID 4379850)	1	1.47e6	1.70e6	1.09e6	1.26e6	inactive
CG34435 (GeneID 31471)	1	1.54e6	1.51e6	1.01e6	1.12e6	inactive
CG16713 (GeneID 33591)	1	1.52e6	1.43e6	1.19e6	1.28e6	inactive
Timp (GeneID 41248)	1	1.62e6	1.65e6	1.36e6	1.40e6	inactive
S (GeneID 33281)	1	1.62e6	1.67e6	9.27e5	1.07e6	inactive
CG33521 (GeneID 3346141)	1	1.28e6	1.67e6	1.08e6	1.20e6	inactive
CG33521 (GeneID 3346141)	2	1.51e6	1.52e6	1.06e6	1.22e6	inactive
Gcn5 (GeneID 39431)	1	1.05e6	1.15e6	1.14e6	1.01e6	inactive
CG13282 (GeneID 35019)	1	1.55e6	1.61e6	1.26e6	1.34e6	inactive
CG6154 (GeneID 43184)	1	1.74e6	1.89e6	1.05e6	1.17e6	inactive
Marf (GeneID 31581)	1	4.71e5		6.65e5		inactive
Drsl4 (GeneID 317954)	1	1.44e6	1.45e6	9.78e5	1.17e6	inactive
EMC4 (GeneID 40505)	1	1.71e6	1.77e6	1.37e6	1.48e6	inactive
SmD1 (GeneID 44668)	1	1.23e6	1.29e6	8.63e5	1.06e6	inactive
CG5339 (GeneID 37794)	1	1.36e6	1.47e6	1.02e6	1.01e6	inactive
AgmNAT (GeneID 31512)	1	1.43e6	1.49e6	1.04e6	1.12e6	inactive
CG32199 (GeneID 40028)	1	1.35e6	1.52e6	1.34e6	1.50e6	inactive
Rab30 (GeneID 33988)	1	1.49e6	1.39e6	1.22e6	1.34e6	inactive
hig (GeneID 35949)	1	1.48e6	1.53e6	9.77e5	1.05e6	inactive
Idh (GeneID 44291)	1	1.41e6	1.55e6	1.21e6	1.00e6	inactive
PGRP-SD (GeneID 38858)	1	1.28e6	1.35e6	1.15e6	1.19e6	inactive
CG18265 (GeneID 39947)	1	1.39e6	1.44e6	1.23e6	1.27e6	inactive
Prosbeta4R2 (GeneID 33451)	1	1.34e6	1.34e6	8.22e5	8.74e5	inactive
CG13358 (GeneID 31029)	1	1.50e6	1.54e6	9.95e5	1.14e6	inactive
CG17145 (GeneID 40215)	1	1.65e6	1.73e6	1.27e6	1.49e6	inactive
CG14668 (GeneID 40646)	1	1.49e6	1.60e6	1.30e6	1.48e6	inactive
CG9825 (GeneID 37624)	1	1.57e6	1.65e6	1.34e6	1.46e6	inactive
CG3611 (GeneID 37972)	1	1.60e6	1.68e6	1.39e6	1.52e6	inactive
EloA (GeneID 42749)	1	1.59e6	1.57e6	1.17e6	1.20e6	inactive
Papss (GeneID 40167)	1	1.46e6	1.55e6	1.39e6	1.34e6	inactive
mTor (GeneID 47396)	1	1.37e6	1.39e6	1.07e6	1.19e6	inactive
CG40341 (retired record) (GeneID 3885621)	1	5.09e5		8.26e5		inactive
CG40341 (retired record) (GeneID 3885621)	2	5.14e5		8.30e5		inactive
